Publication PMC3920478, “Small molecule-mediated refolding and activation of myosin motor function” (eLife, 2014)
Not every entry of the source has a single result; some have several. The list is limited to them. There may be further records. The values listed for one entry differ, and nothing given here explains why; they may come from other doses, times, organisms or constructs than stated.

The chains behind the UniProt entries cited, without tags or fusion partners. Residues count along the entry.
UniProt P79293, 1-810 limits assumed: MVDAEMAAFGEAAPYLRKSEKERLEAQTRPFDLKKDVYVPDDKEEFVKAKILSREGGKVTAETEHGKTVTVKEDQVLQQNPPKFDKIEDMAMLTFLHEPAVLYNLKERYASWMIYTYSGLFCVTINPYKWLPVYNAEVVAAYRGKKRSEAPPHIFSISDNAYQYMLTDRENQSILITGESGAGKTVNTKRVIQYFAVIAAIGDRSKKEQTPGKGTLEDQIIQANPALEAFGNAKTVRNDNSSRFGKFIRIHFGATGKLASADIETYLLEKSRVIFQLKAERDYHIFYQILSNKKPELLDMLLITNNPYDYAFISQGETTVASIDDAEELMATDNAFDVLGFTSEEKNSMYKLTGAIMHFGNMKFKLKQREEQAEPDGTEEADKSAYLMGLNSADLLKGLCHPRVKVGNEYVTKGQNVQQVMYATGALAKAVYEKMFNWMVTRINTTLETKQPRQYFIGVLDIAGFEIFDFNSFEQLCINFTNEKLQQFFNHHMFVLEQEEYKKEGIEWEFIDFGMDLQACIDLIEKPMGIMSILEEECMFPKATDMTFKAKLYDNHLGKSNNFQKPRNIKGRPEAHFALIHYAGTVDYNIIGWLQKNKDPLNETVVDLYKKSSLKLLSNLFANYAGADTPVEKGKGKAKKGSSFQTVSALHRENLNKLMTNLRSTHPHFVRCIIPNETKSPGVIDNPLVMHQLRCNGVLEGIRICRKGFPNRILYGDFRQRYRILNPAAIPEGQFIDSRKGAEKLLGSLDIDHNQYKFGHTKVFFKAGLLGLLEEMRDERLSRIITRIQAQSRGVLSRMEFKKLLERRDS
UniProt P79293, whole entry: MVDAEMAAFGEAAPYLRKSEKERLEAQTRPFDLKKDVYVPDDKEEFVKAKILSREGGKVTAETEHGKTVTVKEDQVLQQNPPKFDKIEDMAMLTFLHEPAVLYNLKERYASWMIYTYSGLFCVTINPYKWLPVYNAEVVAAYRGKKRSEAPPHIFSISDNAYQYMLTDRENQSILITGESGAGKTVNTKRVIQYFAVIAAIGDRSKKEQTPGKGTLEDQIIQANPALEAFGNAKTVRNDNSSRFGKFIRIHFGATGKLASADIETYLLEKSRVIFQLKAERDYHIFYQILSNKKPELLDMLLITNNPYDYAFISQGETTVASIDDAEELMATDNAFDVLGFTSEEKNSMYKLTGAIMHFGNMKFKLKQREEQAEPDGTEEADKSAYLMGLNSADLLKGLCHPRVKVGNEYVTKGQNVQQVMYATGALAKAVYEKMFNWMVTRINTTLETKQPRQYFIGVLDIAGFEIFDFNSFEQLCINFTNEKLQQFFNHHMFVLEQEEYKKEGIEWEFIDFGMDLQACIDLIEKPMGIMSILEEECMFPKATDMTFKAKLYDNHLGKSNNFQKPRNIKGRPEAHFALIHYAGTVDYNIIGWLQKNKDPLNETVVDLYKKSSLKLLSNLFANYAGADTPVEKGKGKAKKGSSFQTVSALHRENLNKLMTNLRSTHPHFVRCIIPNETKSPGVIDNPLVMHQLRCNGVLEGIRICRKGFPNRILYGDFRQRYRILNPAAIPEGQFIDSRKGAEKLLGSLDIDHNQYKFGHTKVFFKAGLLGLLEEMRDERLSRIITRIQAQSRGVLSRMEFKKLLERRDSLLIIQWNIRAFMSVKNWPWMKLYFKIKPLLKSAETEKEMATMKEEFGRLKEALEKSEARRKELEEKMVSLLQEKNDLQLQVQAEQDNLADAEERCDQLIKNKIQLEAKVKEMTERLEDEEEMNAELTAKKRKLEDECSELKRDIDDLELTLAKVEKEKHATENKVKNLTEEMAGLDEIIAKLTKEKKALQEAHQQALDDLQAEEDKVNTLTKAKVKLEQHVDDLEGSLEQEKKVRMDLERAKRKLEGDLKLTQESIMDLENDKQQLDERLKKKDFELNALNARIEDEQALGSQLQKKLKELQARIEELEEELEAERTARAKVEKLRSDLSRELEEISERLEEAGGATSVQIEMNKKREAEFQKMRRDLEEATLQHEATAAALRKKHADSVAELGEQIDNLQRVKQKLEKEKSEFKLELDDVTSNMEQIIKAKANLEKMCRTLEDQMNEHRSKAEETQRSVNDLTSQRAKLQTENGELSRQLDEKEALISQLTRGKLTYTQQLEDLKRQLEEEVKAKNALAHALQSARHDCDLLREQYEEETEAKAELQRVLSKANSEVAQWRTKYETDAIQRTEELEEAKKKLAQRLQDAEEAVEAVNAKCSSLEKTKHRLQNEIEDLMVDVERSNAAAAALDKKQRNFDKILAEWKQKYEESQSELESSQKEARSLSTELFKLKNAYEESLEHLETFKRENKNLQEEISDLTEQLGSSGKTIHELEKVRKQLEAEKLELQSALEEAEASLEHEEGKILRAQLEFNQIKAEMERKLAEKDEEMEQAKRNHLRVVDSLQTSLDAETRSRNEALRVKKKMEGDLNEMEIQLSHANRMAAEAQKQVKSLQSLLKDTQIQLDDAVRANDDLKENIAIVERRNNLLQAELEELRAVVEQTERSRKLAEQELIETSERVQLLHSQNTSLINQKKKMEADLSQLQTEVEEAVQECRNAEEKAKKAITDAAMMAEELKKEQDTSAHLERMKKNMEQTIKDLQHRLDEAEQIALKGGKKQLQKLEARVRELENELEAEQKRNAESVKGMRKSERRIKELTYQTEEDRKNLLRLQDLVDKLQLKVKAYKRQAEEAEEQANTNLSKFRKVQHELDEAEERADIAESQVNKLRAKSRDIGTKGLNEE

Assays:
β-cardiac myosin [1] = target: T1, β-cardiac myosin (Sus scrofa, UniProt P79293); experiment: Transient kinetics (stopped-flow) of the ATPase cycle; conditions: 25 µM EMD 57033 vs control
β-cardiac myosin [2] = target: T1, β-cardiac myosin; experiment: Steady-state basal and actin-activated Mg2+-ATPase (NADH-coupled assay); type: biochemical, Porcine; conditions: 25 µM EMD 57033 vs control

## COc1ccc(C(=O)N2CCCc3cc(C4=NNC(=O)S[C@@H]4C)ccc32)cc1OC
β-cardiac myosin [1]
  K1k+2 ∼Change (−fold), increase: 3.4 fold and threefold
β-cardiac myosin [2]
  KM(Actin) ∼Change (−fold), decrease = increased apparent actin affinity: 10 fold and more than 10 fold
  kcat/KM(Actin) (calculated ratio) ∼Change (−fold), increase: 16 fold and more than 10 fold
